The whole screen tested about 390,000 compounds, of which about 910 (0.23%) were called active. The shares of active, inactive and inconclusive entries below differ from those in the screen. Calls come from the whole dose curve; as a rule, active = well fitted inhibition curve with a large enough effect; inconclusive = small, poorly fitted or top-dose-only effect; inactive = no such curve, though single readings can be large or run the other way. Potencies beside an inconclusive call are fits to weak or partial responses and may not hold up.
biological target: Ubiquitin carboxyl-terminal hydrolase 1 (Homo sapiens) (UniProt O94782); test: Inhibitors of USP1/UAF1: Primary Screen; details: recombinant USP1/UAF1, Ub-Rhodamine cleavage fluorescence; activity change, negative = inhibition: at 57.1 µM (top of the series); note: nearly all actives have a fitted effect of over 60% in size
Outline: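 USP1/UAF1 complex at 1 nM was preincubated with compound for 15 min at room temperature, then Ub-Rho substrate (150nM final) was added. Fluorescence (480/540 nm) was read kinetically, 6 reads every 60 seconds.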
% is set by controls: 0 for no effect and ±100 for the full control effect; potency is the fitted concentration of half-maximal effect.

The chains behind the UniProt entries cited, without tags or fusion partners. Where a name states a change or a piece, a line headed by the entry shows the natural chain unless it says otherwise.
UniProt O94782: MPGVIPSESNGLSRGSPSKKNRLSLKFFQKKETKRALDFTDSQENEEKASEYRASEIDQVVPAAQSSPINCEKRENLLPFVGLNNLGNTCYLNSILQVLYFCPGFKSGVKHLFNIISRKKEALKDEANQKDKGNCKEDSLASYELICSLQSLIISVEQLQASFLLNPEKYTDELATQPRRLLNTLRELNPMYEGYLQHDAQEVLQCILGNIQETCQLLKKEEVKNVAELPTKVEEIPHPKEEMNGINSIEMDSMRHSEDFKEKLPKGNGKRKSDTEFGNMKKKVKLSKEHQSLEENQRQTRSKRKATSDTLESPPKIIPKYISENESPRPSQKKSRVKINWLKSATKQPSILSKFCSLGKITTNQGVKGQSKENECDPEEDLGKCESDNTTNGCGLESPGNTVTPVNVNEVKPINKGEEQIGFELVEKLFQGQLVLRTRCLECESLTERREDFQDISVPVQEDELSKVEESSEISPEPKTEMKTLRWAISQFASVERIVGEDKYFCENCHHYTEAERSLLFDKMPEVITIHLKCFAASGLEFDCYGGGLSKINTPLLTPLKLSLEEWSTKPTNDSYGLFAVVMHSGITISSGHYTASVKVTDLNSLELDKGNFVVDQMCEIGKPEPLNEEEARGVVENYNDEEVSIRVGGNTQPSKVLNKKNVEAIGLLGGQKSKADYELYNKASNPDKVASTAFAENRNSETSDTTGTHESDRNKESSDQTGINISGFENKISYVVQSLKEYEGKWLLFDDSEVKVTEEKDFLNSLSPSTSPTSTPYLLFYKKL

Potency, inconclusive:
Cc1ccc(C(=O)Nc2ccc(Br)c(C(F)(F)F)c2)cc1 44.7 µM [inhibitor, partial curve, poor fit]
COC(=O)c1ccccc1NC(=O)Cn1c(=O)cc(-c2ccccc2)c2c(C)nn(C)c21 44.7 µM [inhibitor, partial curve]
CN(C)/C=C1\C(=O)NN=C1C(F)(F)F 7.94 µM [inhibitor, partial curve, poor fit]
CC(C)(C)NCC(O)COc1cccc2[nH]c(=O)[nH]c12 (stereo not drawn) 14.1 µM [inhibitor, partial curve, poor fit]
CCN(CC)C(=O)Cn1c(=O)n(CCCCCC(=O)Nc2ccccc2)c(=O)c2sccc21 63.1 µM [inhibitor, partial curve, poor fit]
CCC(=O)Nc1sc2c(c1C(N)=O)CCN(C(C)=O)C2 20 µM [inhibitor, partial curve, poor fit]
Cc1cc(SCC(=O)NCc2ccccc2Cl)nc(=O)[nH]1 7.08 µM [inhibitor, single point]
O=C1c2ccccc2C(O)(c2ccccc2)N1c1ccc([N+](=O)[O-])cc1Cl (stereo not drawn) 0.316 µM [inhibitor, full curve]
Cc1ccc(NC(=O)C2CCCN2S(=O)(=O)c2cccc3nsnc23)c(Br)c1 (stereo not drawn) 7.08 µM [inhibitor, partial curve, poor fit]
Cc1ccc2oc(=O)c3cc(C(=O)NCc4ccc(Cl)cc4)sc3c2c1 7.08 µM [inhibitor, full curve, poor fit]
C=CCN1C(=O)C2(NC(=O)c3ccccc3N2)c2ccccc21 (stereo not drawn) 7.94 µM [inhibitor, partial curve, poor fit]
O=C(Cn1ccc(NC(=O)OCc2ccccc2)nc1=O)NCCCc1ccccc1 0.126 µM [inhibitor, full curve, poor fit]
NC(=O)c1nsc(C(=O)N(Cc2cccnc2)C(C(=O)NCc2ccc(F)cc2)c2ccc(F)cc2)c1N (stereo not drawn) 44.7 µM [inhibitor, single point]
Cc1ccc(C)c(NC(=S)/C(=C(\[O-])c2ccc(Cl)s2)[n+]2ccccc2)c1 44.7 µM [inhibitor, partial curve]
Cc1cc2nc3ccc(N(C)C)cc3nc2cc1N 35.5 µM [inhibitor, partial curve, poor fit]
N#Cc1cc([N+](=O)[O-])ccc1Oc1ccc(-c2nnco2)cc1 35.5 µM [inhibitor, single point]
CCn1c(C)c(C)c2cc(C(=O)NCCCN3CCCCC3)ccc21 1 µM [inhibitor, full curve, poor fit]
Cc1ccc(C)c(N2CCN(Cc3nnc(-c4ccc5c(c4)OCO5)o3)CC2)c1 7.94 µM [inhibitor, partial curve, poor fit]
Cc1ccc(NC(=O)CSc2ncn[nH]2)cc1C 0.398 µM [inhibitor, full curve, poor fit]
COC(=O)CSc1nnc2n(C3CCCCC3)c(=O)c3c4c(sc3n12)CCCC4 0.398 µM [inhibitor, full curve, poor fit]
CC(C)(C)OC(=O)N1CCC(NC(=O)c2nc[nH]c2C(=O)N2CCc3ccccc3C2)CC1 0.355 µM [inhibitor, full curve, poor fit]
CCCCCCCC(=O)Nc1cc(C(=O)NCc2ccc(C)cc2)ccc1N1CCC2(CC1)CC(c1cccc(Br)c1)=NO2 2.82 µM [inhibitor, full curve]
CCCN(CCC)Cc1c(C(=O)N/N=C/c2ccco2)nnn1-c1nonc1N 0.562 µM [inhibitor, full curve, poor fit]
N#C/C(C(=O)Nc1ccc(Cl)cc1)=C(/S)Nc1ccccc1 44.7 µM [inhibitor, partial curve, poor fit]
COc1ccccc1C(=O)Nc1nnc(SCc2cc(=O)c3cc(Cl)ccc3[nH]2)s1 4.47 µM [inhibitor, single point]
Cc1cccc2sc(NC(=O)CCn3cccc3)nc12 2.82 µM [inhibitor, full curve, poor fit]
O=C(O)CCCN1C(=O)/C(=C\C(Cl)=C\c2ccccc2)SC1=S 31.6 µM [inhibitor, partial curve]
Cc1ccc(-n2cc(-c3ccccc3)nc2S(=O)(=O)CC(=O)Nc2ccc(F)cc2)cc1 3.55 µM [inhibitor, full curve, poor fit]
COc1ccc(-n2nc(C(=O)Nc3ccc(C)cn3)c3c4ccccc4n(C)c3c2=O)cc1 0.251 µM [inhibitor, full curve, poor fit]
C=C(C)CN1C(=O)C(=O)N(CC(=C)C)C1=O 5.01 µM [inhibitor, partial curve]
COc1cc(/C=C/C(=O)O)cc(S(=O)(=O)NCC2CCCO2)c1OC (stereo not drawn) 3.55 µM [inhibitor, single point]
C=C(C)COc1ccc(-c2[nH]ncc2-c2ccc(OC)cc2)c(O)c1 14.1 µM [inhibitor, partial curve]
CN1/C(=C/C=C/c2n(C)c3cc([N+](=O)[O-])c([N+](=O)[O-])cc3[n+]2C)C(C)(C)c2ccccc21 31.6 µM [inhibitor, partial curve]
COC(=O)COc1ccc(S(=O)(=O)NCc2cccnc2)cc1 1 µM [inhibitor, full curve, poor fit]
CC(C)c1ccccc1OS(N)(=O)=O 0.251 µM [inhibitor, full curve, poor fit]
CC(C)(C)OC(=O)NCc1ccc(CNC(=O)c2nc[nH]c2C(=O)N2CCN(C(=O)OC(C)(C)C)CC2)cc1 100 µM [inhibitor, partial curve, poor fit]
COc1cc(/C=C(\C#N)c2nc3ccccc3[nH]2)cc(Cl)c1OCc1ccccc1Cl 39.8 µM [inhibitor, partial curve]
COc1cc(/C=C2/C(=O)ON=C2C)ccc1OCc1ccccc1F 44.7 µM [inhibitor, partial curve, poor fit]
COc1ccccc1N1CN(Cc2ccccc2)CNC1=S 39.8 µM [inhibitor, single point]
Cc1c(NC(=O)Nc2ccc(Br)cc2F)sc2nc3n(c(=O)c12)CCC(C)CC3 (stereo not drawn) 4.47 µM [inhibitor, full curve]
Cc1ccc(CNC(=O)C(NS(=O)(=O)c2ccc3nc(C)sc3c2)C(C)C)cc1 (stereo not drawn) 15.8 µM [inhibitor, partial curve]
CCc1ccc(-c2cc(C)no2)cc1S(=O)(=O)N1CC(=O)Nc2ccccc21 56.2 µM [inhibitor, partial curve, poor fit]
CCCSCCCNC(=O)C1CCCN(c2nn3cc(-c4ccc(OC)cc4)nc3s2)C1 (stereo not drawn) 0.708 µM [inhibitor, full curve, poor fit]
Cc1ccc(-c2nc3cnccn3c2Nc2c(C)cccc2C)o1 28.2 µM [inhibitor, partial curve]
COc1ccccc1Oc1ccc(N/C=C/C(=O)c2ccc(C)o2)cc1 31.6 µM [inhibitor, partial curve]
COc1ccc(OC)c(NC(=O)c2cc3cc(C)ccc3n2C)c1 28.2 µM [inhibitor, partial curve]
COc1cc(C(CC(=O)Nc2ccc(F)cc2F)N2Cc3ccccc3C2=O)cc(OC)c1OC (stereo not drawn) 4.47 µM [inhibitor, partial curve]
CCOc1ccc(NC(=O)c2ccc3c(=O)n4nc(Nc5ccccc5C)sc4nc3c2)cc1 0.0708 µM [inhibitor, full curve, poor fit]
O=C(COc1ccc2c3c(c(=O)oc2c1)CCCC3)N[C@@H](Cc1ccccc1)C(=O)O 10 µM [inhibitor, partial curve, poor fit]

Compounds from the list above containing a halogen (17):
Potency, inconclusive:
Cc1ccc(C(=O)Nc2ccc(Br)c(C(F)(F)F)c2)cc1 44.7 µM [inhibitor, partial curve, poor fit]
CN(C)/C=C1\C(=O)NN=C1C(F)(F)F 7.94 µM [inhibitor, partial curve, poor fit]
Cc1cc(SCC(=O)NCc2ccccc2Cl)nc(=O)[nH]1 7.08 µM [inhibitor, single point]
O=C1c2ccccc2C(O)(c2ccccc2)N1c1ccc([N+](=O)[O-])cc1Cl (stereo not drawn) 0.316 µM [inhibitor, full curve]
Cc1ccc(NC(=O)C2CCCN2S(=O)(=O)c2cccc3nsnc23)c(Br)c1 (stereo not drawn) 7.08 µM [inhibitor, partial curve, poor fit]
Cc1ccc2oc(=O)c3cc(C(=O)NCc4ccc(Cl)cc4)sc3c2c1 7.08 µM [inhibitor, full curve, poor fit]
NC(=O)c1nsc(C(=O)N(Cc2cccnc2)C(C(=O)NCc2ccc(F)cc2)c2ccc(F)cc2)c1N (stereo not drawn) 44.7 µM [inhibitor, single point]
Cc1ccc(C)c(NC(=S)/C(=C(\[O-])c2ccc(Cl)s2)[n+]2ccccc2)c1 44.7 µM [inhibitor, partial curve]
CCCCCCCC(=O)Nc1cc(C(=O)NCc2ccc(C)cc2)ccc1N1CCC2(CC1)CC(c1cccc(Br)c1)=NO2 2.82 µM [inhibitor, full curve]
N#C/C(C(=O)Nc1ccc(Cl)cc1)=C(/S)Nc1ccccc1 44.7 µM [inhibitor, partial curve, poor fit]
COc1ccccc1C(=O)Nc1nnc(SCc2cc(=O)c3cc(Cl)ccc3[nH]2)s1 4.47 µM [inhibitor, single point]
O=C(O)CCCN1C(=O)/C(=C\C(Cl)=C\c2ccccc2)SC1=S 31.6 µM [inhibitor, partial curve]
Cc1ccc(-n2cc(-c3ccccc3)nc2S(=O)(=O)CC(=O)Nc2ccc(F)cc2)cc1 3.55 µM [inhibitor, full curve, poor fit]
COc1cc(/C=C(\C#N)c2nc3ccccc3[nH]2)cc(Cl)c1OCc1ccccc1Cl 39.8 µM [inhibitor, partial curve]
COc1cc(/C=C2/C(=O)ON=C2C)ccc1OCc1ccccc1F 44.7 µM [inhibitor, partial curve, poor fit]
Cc1c(NC(=O)Nc2ccc(Br)cc2F)sc2nc3n(c(=O)c12)CCC(C)CC3 (stereo not drawn) 4.47 µM [inhibitor, full curve]
COc1cc(C(CC(=O)Nc2ccc(F)cc2F)N2Cc3ccccc3C2=O)cc(OC)c1OC (stereo not drawn) 4.47 µM [inhibitor, partial curve]

Next part.

Activity change, negative = inhibition, inactive:
O=C(Nc1nc2c(F)cc(F)cc2s1)c1ccc([N+](=O)[O-])o1 -19.6%
COc1ccc(Oc2coc3cc(OC(=O)c4cccs4)ccc3c2=O)cc1 -20.4%
Cc1cc2c(c(=O)n1CCc1ccccc1)C(C(C)C)C(C#N)=C(N)O2 (stereo not drawn) -5%
CCc1ccc(NC(=O)C(=O)NCC(c2cccnc2)N2CCN(Cc3ccccc3)CC2)cc1 (stereo not drawn) -9.77%
Cc1ccc(OCC(=O)c2cc(C)n(-c3ccccc3)c2C)c([N+](=O)[O-])n1 -2.18%
CN(C)/C=N/c1nc2nccc(-c3cccc(Cl)c3)n2n1 -14.3%
CC1(C)CC(=O)C2=C(C1)OC(N)=C(C#N)C2C#Cc1ccccc1 (stereo not drawn) -14.6%
O=C(c1ccc(O)cc1)c1ccc(O)cc1O -17%
CC(C)CC[n+]1ccccc1/C=C/c1ccc(N(C)C)cc1 -21.5%
Cc1sc2ncnc(Nc3ccccc3)c2c1C -18.5%
COc1ccc(OC)c(NC(=O)Cn2ccc3ccccc3c2=O)c1 -22.7%
Cc1cc2cc(C(c3nnnn3Cc3ccco3)N3CCc4ccccc43)c(=O)[nH]c2cc1C (stereo not drawn) -12.6%
COc1cccc(Cn2c(=O)c3ccccc3n3nc(C)cc23)c1 -22.9%
c1cc2c(cc1C1CCCCC1)c1c3n2CCCNC3CCC1 (stereo not drawn) -11.8%

Source: PubChem BioAssay AID743255 (National Center for Advancing Translational Sciences (NCATS), 2014)
